Reference: patent US7160914B2, “Compounds that exhibit specific molecular recognition of mixed nucleic acid sequences and bind in the DNA minor groove as a dimer” (The University of North Carolina at Chapel Hill, priority 1999, dated 2007)

Test system: oligo1 (AATT sequence hairpin)
Conditions: oligo1, SPR

SMILES	binding stoichiometry at saturation (compound per duplex)
N=C(N)c1ccc2nc(-c3ccc(-c4nc5ccc(C(=N)N)cc5[nH]4)o3)[nH]c2c1 [DB270, reference compound]	single molecule
N=C(N)c1ccc(-c2ccc(-c3nc4ccc(C(=N)N)cc4[nH]3)o2)cc1 [DB293]	single molecule
